Assay results taken from patent publication US20250011403A1.
No constants are given. Whether binding was seen depends on the method and setting. Some binding calls cover weakened binding; strength is not graded here. Where a sequence is shown, tags or fusion partners need not be part of it.

T1: recombinant 6His-Sp17 protein (human) (UniProt Q15506)
T1 sequence (looked up): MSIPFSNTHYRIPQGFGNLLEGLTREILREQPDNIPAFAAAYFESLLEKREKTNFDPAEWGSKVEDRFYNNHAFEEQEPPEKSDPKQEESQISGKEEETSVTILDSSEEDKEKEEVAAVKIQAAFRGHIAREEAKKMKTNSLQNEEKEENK

B1: mouse-human chimeric anti-Sp17 IgG2a/kappa monoclonal antibody chAB2 (antibody, V domains shown)
VH: QVQLQQSGAEVKKPGSSVKVSCKASGGTFSSYAISWVRQAPGQGLEWMGRIIPILGIANYAQKFQGRVTITADKSTSTAYMELSSLRSEDTAVYYCARPSEEVVAAYGAFDIWGQGTTVTVSS
VL: EIVLTQSPLSLPVRPGEPASISCRASQSLLRSDGFNYLDWYLQKPGQSPQLLVYLGSNRASGVPDRFSGSGSGTDFTLKISRVEAEDVGVYYCMQAVQTPYIFGQGTKLEIK
B2: human anti-Sp17 IgG4/kappa monoclonal antibody SP17-AB2 (antibody, V domains shown)
VH: B1 VH
VL: EIVLTQSPLSLPVRPGEPASISCRASQSLLRSDGFNYLDWYLQKPGQSPQLLVYLGSNRASGVPDRFSGSGSGTDFTLKISRVEAEDVGVYYCMQAVQTPYIFGQGTKLEIKR
B3: anti-Sp17 Fab clone identified by bio-panning the human Fab phage display library (Fab, V domains shown)
VH: B1 VH
VL: B1 VL

Legend:
[1] = biological target: T1, recombinant 6His-Sp17 protein (human); experiment: western blot of Sp17 protein
[2] = biological target: T1, recombinant 6His-Sp17 protein (human); experiment: western blot
[3] = biological target: T1, recombinant 6His-Sp17 protein (human); experiment: western blot of Sp17 protein on an SDS-PAGE gel, detected with chAB2
[4] = biological target: T1, recombinant 6His-Sp17 protein (human); experiment: surface plasmon resonance (Biacore T200), 6His-Sp17 at six concentrations over chAB2
[5] = biological target: T1, recombinant 6His-Sp17 protein (human); experiment: western blot of Sp17 protein and a tumor cell lysate
[6] = biological target: T1, recombinant 6His-Sp17 protein (human); experiment: ELISA of phage display clones

| Binder | binding [1] | binding [2] | binding [3] | binding [4] | binding [5] | binding [6] |
| --- | --- | --- | --- | --- | --- | --- |
| B1 | binds | binds | binds | binds | – | – |
| B2 | – | binds | – | – | binds | – |
| B3 | – | – | – | – | – | binds |
